No constants are given. Whether binding was seen depends on the method and setting. In cells and extracts the contact can be indirect. Where a sequence is shown, tags or fusion partners need not be part of it.
Target: T1, SpoIIE-3XFLAG (full length FLAG tagged SpoIIE) (B. subtilis) (UniProt P37475)
T1 sequence: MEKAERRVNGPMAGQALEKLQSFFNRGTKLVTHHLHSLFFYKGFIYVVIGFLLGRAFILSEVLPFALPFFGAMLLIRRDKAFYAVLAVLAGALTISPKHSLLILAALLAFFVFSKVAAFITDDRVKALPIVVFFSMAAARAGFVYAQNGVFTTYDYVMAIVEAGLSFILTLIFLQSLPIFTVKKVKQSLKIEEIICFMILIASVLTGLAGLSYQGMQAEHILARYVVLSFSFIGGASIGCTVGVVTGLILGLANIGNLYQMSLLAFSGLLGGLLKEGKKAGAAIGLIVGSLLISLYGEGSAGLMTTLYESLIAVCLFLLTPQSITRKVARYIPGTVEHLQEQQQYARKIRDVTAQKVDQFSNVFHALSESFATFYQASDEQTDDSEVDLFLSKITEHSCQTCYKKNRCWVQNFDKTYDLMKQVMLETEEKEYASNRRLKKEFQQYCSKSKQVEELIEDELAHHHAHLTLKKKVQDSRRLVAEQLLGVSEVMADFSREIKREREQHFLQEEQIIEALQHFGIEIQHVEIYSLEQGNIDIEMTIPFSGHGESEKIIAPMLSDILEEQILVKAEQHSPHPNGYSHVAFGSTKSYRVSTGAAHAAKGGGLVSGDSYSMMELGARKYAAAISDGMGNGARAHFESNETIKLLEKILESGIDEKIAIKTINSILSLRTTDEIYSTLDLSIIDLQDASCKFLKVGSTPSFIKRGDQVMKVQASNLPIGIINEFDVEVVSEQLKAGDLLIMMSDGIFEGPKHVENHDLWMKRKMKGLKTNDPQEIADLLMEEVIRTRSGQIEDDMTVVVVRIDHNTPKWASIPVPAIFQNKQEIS
Assay: co-IP; extracts of sporulating B. subtilis cells (2.5 hours after resuspension), membrane proteins solubilized with 2% digitonin, anti-FLAG M2 magnetic beads 1 hour at 4°C, washes with 0.1% digitonin; Western blot

The chains behind the UniProt entries cited, without tags or fusion partners.
UniProt P06224: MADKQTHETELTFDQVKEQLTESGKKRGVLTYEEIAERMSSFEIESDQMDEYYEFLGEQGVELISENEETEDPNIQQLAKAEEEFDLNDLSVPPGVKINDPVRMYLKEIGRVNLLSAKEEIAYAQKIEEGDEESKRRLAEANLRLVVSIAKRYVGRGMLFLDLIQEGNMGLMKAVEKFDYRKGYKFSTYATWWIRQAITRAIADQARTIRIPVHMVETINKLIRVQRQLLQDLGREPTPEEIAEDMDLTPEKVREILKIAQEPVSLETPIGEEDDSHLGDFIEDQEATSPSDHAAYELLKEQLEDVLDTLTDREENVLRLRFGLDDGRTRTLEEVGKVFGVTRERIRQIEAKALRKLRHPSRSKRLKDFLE
UniProt P80244: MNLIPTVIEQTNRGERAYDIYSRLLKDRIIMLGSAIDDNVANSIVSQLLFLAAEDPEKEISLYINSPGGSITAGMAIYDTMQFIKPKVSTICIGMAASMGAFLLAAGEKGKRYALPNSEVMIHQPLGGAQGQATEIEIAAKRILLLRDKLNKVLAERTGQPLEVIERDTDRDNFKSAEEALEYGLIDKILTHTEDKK

binding	Substance
no binding	σ^A (from UniProt P06224 1-371)
no binding	ClpP (from UniProt P80244 1-197)

Source: PMC4945075
